Data as given in patent US20250152730A1, “ANTI-TM4SF1 ANTIBODY-DRUG CONJUGATES COMPRISING CLEAVABLE LINKERS AND METHODS OF USING SAME” (Angiex, Inc., priority 2022, published 2025).
Results are given in words; binding and its absence hold for the method and conditions named. Some binding calls cover weakened binding; strength is not graded here. Where a sequence is shown, tags or fusion partners need not be part of it. One block for each binder: values may come before it.

Assays:
[1] = molecular target: T1, TM4SF1 (as named in the statement on the antibody screen) (Homo sapiens (Human)) (UniProt P30408); assay: screen referred to in the description; method not detailed
T1 sequence: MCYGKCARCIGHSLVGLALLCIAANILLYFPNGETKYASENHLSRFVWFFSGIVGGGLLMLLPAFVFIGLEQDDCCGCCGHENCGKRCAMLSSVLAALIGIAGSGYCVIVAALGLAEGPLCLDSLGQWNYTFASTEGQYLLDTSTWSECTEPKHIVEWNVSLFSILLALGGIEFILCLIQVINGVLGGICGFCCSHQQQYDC

[2] = molecular target: T2, human TM4SF1 (transmembrane-4 L six family member-1) on HUVEC cells (human) (UniProt P30408); assay: cell-based flow cytometry on HUVEC cells
T2 sequence: T1 sequence

binding [1]: binds
B1: murine monoclonal antibody AGX-A09 (antibody, V domains shown)
VH: EVQLQQSGPELVKPGASVKMSCKASGYTFSSYVMHWVKQKPGQGLEWIGYINPYSDVTNYNEKFKGKATLTSDRSSNTAYMELSSLTSEDSAVYYCARNYFDWGRGTLVTVSA
VL: DIQMTQSPASLSASVGETVTITCRASKNVYSYLAWFQQKQGKSPQLLVYNAKTLAEGVPSRFSGGGSGTQFSLKINSLQPADFGSYYCQHHYNIPFTFGSGTKLEIK

binding [1]: binds
B2: murine monoclonal antibody AGX-A03 (antibody, V domains shown)
VH: QIQLVQSGPELKKPGETVKISCKASGYSFRDYGMNWVKQAPGRTFKWMGWINTYTGAPVYAADFKGRFAFSLDTSASAAFLQINNLKNEDTATYFCARWVSYGNNRNWFFDFWGAGTTVTVSS
VL: DVLMTQTPLSLPVRLGDQASISCRSSQTLVHSNGNTYLEWYLQKPGQSPKLLIYKVSNRLSGVPDRFSGSGSGTDFTLKISRVETEDLGVYYCFQGSHGPWTFGGGTKLEIK

binding [2]: binds | binding [1]: binds
B3: AGX-A07 anti-TM4SF1 antibody (without Fc region mutations) (antibody, V domains shown)
VH: QIQLVQSGPELKKPGETVKISCKASGYTFTNYGVKWVKQAPGKDLKWMGWINTYTGNPIYAADFKGRFAFSLETSASTAFLQINNLKNEDTATYFCVRFQYGDYRYFDVWGAGTTVTVSS
VL: QIILSQSPAILSASPGEKVTMTCRANSGISFINWYQQKPGSSPKPWIYGTANLASGVPARFGGSGSGTSYSLTISRVEAEDAATYYCQQWSSNPLTFGAGTKLELR

binding [2]: binds
B4: AGX-A07 variant comprising Fc region mutations N297C, M252Y, S254T and T256E (antibody, V domains shown)
VH: B3 VH
VL: B3 VL

binding [2]: binds
B5: AGX-A07 variant comprising Fc region mutation N297C (antibody, V domains shown)
VH: B3 VH
VL: B3 VL

binding [1]: binds
B6: murine monoclonal antibody AGX-A08 (antibody, V domains shown)
VH: EVQLQQSGPELVKPGASVKLSCKASGYTVTSYVMHWVKQKPGQGLEWIGYINPYSDVTNCNEKFKGKATLTSDKTSSTAYMELSSLTSEDSAVYYCSSYGGGFAYWGQGTLVTVSA
VL: DIQMTQSPASLSASVGEPVTITCRASKNIYTYLAWYHQKQGKSPQFLVYNARTLAGGVPSRLSGSGSVTQFSLNINTLHREDLGTYFCQHHYDTPYTFGGGTNLEIK

binding [1]: binds
B7: murine monoclonal antibody AGX-A04 (antibody, V domains shown)
VH: EVQLQQSGPELVKPGASVKISCKTSGYTFTDYTMHWVRQSHGKSLEWIGSFNPNNGGLTNYNQKFKGKATLTVDKSSSTVYMDLRSLTSEDSAVYYCTRIRATGFDSWGQGTTLTVSS
VL: DIVMSQSPSSLAVSAGEKVTMSCKSSQSLLNSRTRKNYLAWYQQKPGQSPKLLIYWASTRESGVPDRFTGSGSGTDFTLTISNVQAEDLTVYYCKQSYNPPWTFGGGTKLEIK

binding [1]: binds
B8: murine monoclonal antibody AGX-A05 (antibody, V domains shown)
VH: EVQVQQSGPELVKPGASVKMSCKASGYTFTSYVMHWVKQKPGQGLEWIGYINPNNDNINYNEKFKGKASLTSDKSSNTVYMELSSLTSEDSAVYYCAGYGNSGANWGQGTLVTVSA
VL: DIQMTQSPASLSASVGETVTITCRTSKNIFNFLAWYHQKQGRSPRLLVSHTKTLAAGVPSRFSGSGSGTQFSLKINSLQPEDFGIYYCQHHYGTPWTFGGGTKLEIK
